Assay results: paper doi:10.1101/621219 (bioRxiv, 2019)
Read-outs that look alike come from different tables or passages of the source. No constants are given. Whether binding was seen depends on the method and setting. Binding can be weak; no strength is given.

How the values were obtained:
Assay in all cases: SEC
[1] = target: FoxA truncation mutant with residues 64-130 deleted (Pseudomonas aeruginosa strain PAO1) (UniProt Q9I116)
[2] = target: FoxA truncation mutant with residues 64-130 deleted (Pseudomonas aeruginosa strain PAO1) (UniProt Q9I116); remark: listed apart in the source
[3] = target: FoxA truncation mutant with residues 64-143 deleted (Pseudomonas aeruginosa strain PAO1) (UniProt Q9I116)

Measured: binding

B1: C-terminal domain of TonB1 from Pseudomonas aeruginosa PAO1 (residues 251-340) (domain or fragment, Pseudomonas aeruginosa strain PAO1, UniProt Q51368 251-340, looked up)
chain: DSDIKPLRMDPPVYPRMAQARGIEGRVKVLFTITSDGRIDDIQVLESVPSRMFDREVRQAMAKWRFEPRVSGGKIVARQATKMFFFKIEK
binds: all assays above
